According to article PMC6599030:
No constants are given. Whether binding was seen depends on the method and setting. Binding seen in cells or lysates may run through a third protein. These calls come from enrichment with a bait or labelling near it, and not all partners need be listed. Tags and fused reporters may be left off the sequences shown.

Amino acid sequences for entries named in this document (tags omitted).
UniProt Q15836: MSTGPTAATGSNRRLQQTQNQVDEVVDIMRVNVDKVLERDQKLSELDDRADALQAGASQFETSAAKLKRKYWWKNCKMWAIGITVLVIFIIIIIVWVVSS

Target: T1, GFP-WDFY2 (UniProt Q96P53)
T1 sequence: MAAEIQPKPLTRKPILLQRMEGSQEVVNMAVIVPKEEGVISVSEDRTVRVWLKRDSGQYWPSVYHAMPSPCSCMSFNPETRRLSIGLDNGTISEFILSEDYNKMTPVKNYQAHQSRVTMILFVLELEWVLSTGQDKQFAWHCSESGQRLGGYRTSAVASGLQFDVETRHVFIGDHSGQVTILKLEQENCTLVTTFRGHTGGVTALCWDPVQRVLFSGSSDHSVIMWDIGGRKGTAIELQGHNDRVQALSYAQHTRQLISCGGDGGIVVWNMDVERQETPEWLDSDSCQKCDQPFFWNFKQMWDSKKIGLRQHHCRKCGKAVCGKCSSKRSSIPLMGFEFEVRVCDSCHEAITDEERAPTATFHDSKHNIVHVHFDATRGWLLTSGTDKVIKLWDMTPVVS
Experiment: affinity purification with mass spectrometry; GFP-trap magnetic beads added to lysates of stable hTERT-RPE1 cells expressing GFP-WDFY2 or GFP (control); lysis buffer 50 mM TRIS, NaCl, 0.25% Triton X100, 1 mM DTT, 50 µM ZnCl2; rotating at 4° for 4 h; label-free quantitative LC-MS/MS

binding: binds
Substance: VAMP3 (from UniProt Q15836 1-100)
